From patent US20060024698, “Method to protect DNA ends” (published 2006)

Target: T1, Exonuclease I (Escherichia coli) (UniProt P04995)
T1 sequence (looked up, limits assumed): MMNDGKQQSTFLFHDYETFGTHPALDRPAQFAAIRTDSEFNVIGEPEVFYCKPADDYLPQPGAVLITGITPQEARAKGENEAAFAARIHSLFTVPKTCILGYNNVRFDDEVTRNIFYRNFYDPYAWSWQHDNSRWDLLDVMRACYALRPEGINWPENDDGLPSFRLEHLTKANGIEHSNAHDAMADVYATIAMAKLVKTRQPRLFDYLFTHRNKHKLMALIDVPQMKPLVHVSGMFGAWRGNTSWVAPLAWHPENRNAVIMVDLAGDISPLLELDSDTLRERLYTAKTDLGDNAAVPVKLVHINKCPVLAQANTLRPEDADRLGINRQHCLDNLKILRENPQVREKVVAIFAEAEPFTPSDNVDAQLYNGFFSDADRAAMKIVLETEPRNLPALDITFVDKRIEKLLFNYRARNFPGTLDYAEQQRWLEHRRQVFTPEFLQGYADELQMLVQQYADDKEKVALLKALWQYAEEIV
Experiment: enzyme reaction in vitro
Settings: removes 3' single-strand extension; 10 mM MgCl2, 37 C; blocked by DdrA; label: 5'-32P on 37 nt strand

CTAGCATTAGTTTCTTCCTTAAACAATTTGAAAGACC / GGTCTTTCAAATTGTTTAAGGAAGAAACTAATGCTAGCCACGGTCCGAGCC [duplex 37/51 with 3' extension]
activity on this sequence: active

The exact form of at least one protein or probe is not confirmed. Tags and fusion partners may be left off the protein sequences shown.
